Entries after “also recorded” stand apart in the source; their conditions may differ.
Test system: MIAPACA2 cells
Assay: Pulse-chase study with tyrosine-derived intermediates after two weeks of 13C9-Tyr labelling
Format: cell-based, human
Details: exogenous metabolite, cells labelled with 13C9-Tyr for two weeks
Method: Using the same experimental scheme, the incorporation of Tyr-derived metabolites into CoQ10 was measured. […] For metabolomics, briefly, cells were washed in 4° C. 0.9% saline and metabolites were extracted with 46% methanol:23% H2O:[…] chloroform that contained a labelled amino acid standard mix (MSK-A2-1.2, Cambridge Isotope Laboratories, Inc.). Enzymatic assay samples were extracted using 80% methanol: 20% H2O that contained labelled amino acid standards. Extracts were placed into 1.5 mL Eppendorf tubes, vortexed at 4° C. for 10 min and centrifuged at 4° C. for 10 min at 17,200×g in a microcentrifuge. The aqueous phase was transferred to vials for GC-MS or Eppendorf tubes for LC-MS. Polar samples were evaporated in a […] and samples were resolved by GC-MS or LC-MS. Lipid samples were dried using a stream of N2 (for ^18O labelling studies) or air. Metabolite and lipid extracts were submitted to the […] Metabolomics Core Resource Laboratory. For polar metabolomics, the LC column was a Millipore ZIC-pHILIC (2.1×150 […], 5 μm bead size) coupled to a Dionex […] 3000 system. The column oven temperature was held at 25° C. The flow rate was 100 μL/min, and the injection volume was 1 μL. […] Peak heights were analyzed using Xcalibur (ThermoFisher Scientific). […] Peak heights were analyzed using Xcalibur (ThermoFisher Scientific).

SMILES	intracellular accumulation (uptake) of the unlabelled metabolite
O=C(O)c1ccc(O)cc1 [Metabolite 4-HB, 4-hydroxybenzoic acid]	substantial intracellular accumulation
O=C(O)C(O)c1ccc(O)cc1 (racemic) [Metabolite 4-HMA, 2-hydroxy-2-(4-hydroxyphenyl)acetic acid]	readily taken up by cells; also recorded: substantial intracellular accumulation

From patent US12558329B2 (New York University, priority 2021, dated 2026)
